# Measurements from PubChem BioAssay AID1347076 (National Center for Advancing Translational Sciences (NCATS), 2019).
# Out of some 400,000 compounds screened, about 13,000 (3.2%) were called active. This list was built around the results that the source calls inconclusive (neither active nor inactive); the mix of calls is not that of the screen. Calls follow the shape of the dose curve; as a rule, active = well fitted cell-killing curve with a large enough effect; inconclusive = small, poorly fitted or top-dose-only effect, or effect the other way; inactive = flat fitted curve, though single readings scatter. Potencies of inconclusive entries are doubtful fits and often do not repeat.
# Assay: qHTS assay for MDR1-selective chemotherapeutics: Primary screen using the drug-selected MDR subline cells KB-V1; also: nearly all actives have a fitted effect of over 60% in size
# Settings: KB-V1 MDR cells viability, CellTiter-Glo, 72 h; series mostly up to 46.1 µM
# In short: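 Cytotoxicity toward P-gp-expressing KB-V1 cells was determined as loss of CellTiter-Glo luminescence after 72 h at 37 degrees C. Compounds were tested in quantitative HTS format across a concentration range, with curves fitted to normalized data.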
# Potency is read from the fitted curve at half-maximal effect.
row,SMILES,Potency
1,COCCn1c(N)c(N(Cc2ccccc2)C(=O)c2cc3ccccc3o2)c(=O)[nH]c1=O,inactive
2,CCN1C(=NCc2cccc(C(F)(F)F)c2)N[C@@H](c2cccc(C(F)(F)F)c2)C(C(=O)OC)=C1C,"inconclusive: 23.1 µM [cytotoxic, single point]"
3,N#CC1=C(N)Oc2c(sc3ccccc23)C1c1ccco1 (configuration not stated),"inconclusive: 25.9 µM [cytotoxic, single point]"
4,CCc1ccc(S(=O)(=O)NCc2ccc(C(=O)NCCN(Cc3ccccc3)C(C)C)cc2)cc1,"inconclusive: 29.1 µM [cytotoxic, single point]"
5,CC1(C(=O)NS(=O)(=O)c2cccc(Cl)c2)CCN1C(=O)C1(c2ccc(Cl)cc2)CCC1 (configuration not stated),inactive
6,Cc1ccc(S(=O)(=O)Nc2cccc3cccnc23)c([N+](=O)[O-])c1,"inconclusive: 4.61 µM [cytotoxic, full curve]"
7,COc1cccc(CNC(=O)C(Cc2ccccc2)NS(=O)(=O)c2ccc3c(c2)oc(=O)n3C)c1 (configuration not stated),inactive
8,Cc1cccc(OC(=O)c2cc(-c3ccc4c(c3)OCCO4)on2)c1C,inactive
9,O=c1[nH]c(-c2cccnc2)nc2sc(-c3ccccc3)cc12,active: 2.91 µM
10,CC(C)C(NC(=O)C(NC(=O)C1O[C@@H]2OC(C)(C)O[C@@H]2[C@H]2OC(C)(C)O[C@@H]12)C(C)C)C(=O)O (some centres not stated),"inconclusive: 20.6 µM [cytotoxic, single point]"
11,c1ccc(-c2[nH]ncc2CN2CCN(Cc3ccc4c(c3)OCO4)CC2)cc1,"inconclusive: 29.1 µM [cytotoxic, single point]"
12,N#Cc1ccc(NC(=O)N2CCC(c3nc4c(nnn4Cc4cccc(Cl)c4)c(=O)[nH]3)CC2)cc1,"inconclusive: 29.1 µM [rising, single point]"
13,O=C(NCC1COc2ccccc2O1)c1cccc(S(=O)(=O)N2CCN(c3ccccc3)CC2)c1 (configuration not stated),inactive
14,CCCc1cc(=O)[nH]c(SCC(=O)Nc2cc(S(=O)(=O)N3CCOCC3)ccc2N(CC)CC)n1,inactive
15,Cc1cccc(NC(=O)c2ccc3nc(CCc4ccccc4)oc3c2)c1C,inactive
16,O=C(Nc1cccc(C(=O)Nc2ccc(S(=O)(=O)O)c3cc(S(=O)(=O)O)cc(S(=O)(=O)O)c23)c1)Nc1cccc(C(=O)Nc2ccc(S(=O)(=O)O)c3cc(S(=O)(=O)O)cc(S(=O)(=O)O)c23)c1,"inconclusive: 29.1 µM [rising, single point]"
17,COc1ccc(/C(N)=N/OC(=O)C2CCC(=O)N2S(=O)(=O)c2ccc(C)cc2)cc1OC (configuration not stated),"inconclusive: 18.4 µM [cytotoxic, single point]"
18,COc1ccc(-c2noc(CSc3nc(N)cc(=O)[nH]3)n2)cc1,"inconclusive: 20.6 µM [cytotoxic, single point]"
19,Cc1nc(C)c(C(=O)O)c(-c2cccs2)c1C(=O)O,inactive
20,CC(C)n1nccc1N(Cc1ccc(Br)cc1)S(=O)(=O)c1ccccc1,"inconclusive: 29.1 µM [cytotoxic, single point]"
21,CN1CCN(c2ccc(S(=O)(=O)N3CCCCC3)cc2NC(=O)/C=C/c2ccc(Cl)c([N+](=O)[O-])c2)CC1,inactive

row,SMILES,Potency
1,CCC1CCCCN1C(=O)COC(=O)c1cncc(Br)c1 (configuration not stated),"inconclusive: 29.1 µM [rising, single point]"
2,O=C(Nc1ccccc1F)C1CCN(S(=O)(=O)c2cccnc2)CC1,"inconclusive: 23.1 µM [rising, partial curve, poor fit]"
3,CCC1CCCCN1C(=O)Cn1nc([N+](=O)[O-])c(Cl)c1C (configuration not stated),inactive
4,CC1CCN(S(=O)(=O)c2ccc(NC(=O)CN3CCCCCC3)cc2)CC1,inactive
5,COc1ccc(NC(=O)C2=Cc3ccccc3OC2)cc1,"inconclusive: 23.1 µM [cytotoxic, single point]"
6,CCOc1ccccc1C(=O)Nc1ccc2nc3c(c(Nc4ccc(OC)c(OC)c4)c2c1)CCCC3,"inconclusive: 20.6 µM [cytotoxic, single point]"
7,Cc1cc(C)nc(N2CCCC(C(=O)Nc3ccc(F)cc3)C2)n1 (configuration not stated),"inconclusive: 14.6 µM [cytotoxic, partial curve, poor fit]"
8,Cc1cc(NC(=O)c2cc(-c3cccc(Cl)c3)on2)no1,"inconclusive: 16.4 µM [cytotoxic, partial curve, poor fit]"
9,CC(=O)OCC(=O)C1(O)CCC2C3CCC4C(OC(C)=O)C(=O)CCC4(C)C3C(=O)CC21C (configuration not stated),inactive
10,CCN(CC)C(=O)c1cccc(-c2csc(C(NC(C)=O)c3cccc(OC)c3)n2)c1 (configuration not stated),"inconclusive: 20.6 µM [cytotoxic, partial curve, poor fit]"
11,O=C(Nc1ccccc1)c1ccc2c(O)c(S(=O)(=O)c3ccc(Cl)cc3)c(=O)[nH]c2c1,inactive
12,CCN(c1cccc(C)c1)S(=O)(=O)c1c(C)[nH]c(=O)[nH]c1=O,inactive
13,Cc1cc(O)c2c(C)c(CC(=O)N3CCCCC3)c(=O)oc2c1,"inconclusive: 23.1 µM [rising, single point]"
14,Cc1ccc(C2NCCS2)cc1 (configuration not stated),"inconclusive: 29.1 µM [rising, single point]"
15,Cc1ccc2nc(-c3ccccc3)cc(C(=O)N3CCN(c4ccccc4O)CC3)c2c1,"inconclusive: 18.4 µM [cytotoxic, single point]"
16,COc1ccc(N(CC(=O)NCCSc2ccccc2)S(=O)(=O)c2ccccc2)c(OC)c1,"inconclusive: 5.8 µM [cytotoxic, partial curve, poor fit]"
17,C/C=C/c1ccc(OCCCCN2CCC(C)CC2)c(OC)c1,"inconclusive: 11.6 µM [cytotoxic, partial curve, poor fit]"
18,O=C(CSc1nnc(NC(=O)c2ccccc2[N+](=O)[O-])s1)NC1CCCC1,inactive
19,COc1cccc(N2CCN(Cc3nc4ccccc4c(=O)[nH]3)CC2)c1,inactive
20,Cn1cc([N+](=O)[O-])c(C(=O)N2CCN(Cc3ccc4c(c3)OCO4)CC2)n1,"inconclusive: 20.6 µM [rising, single point]"
21,CCOc1ccc(C2C(C#N)=C(N)N(N(C)C)C3=C2C(=O)CC(C)(C)C3)cc1 (configuration not stated),inactive

# Reprinted at random: two records from the list, in no set order.
row,SMILES,Potency
5,COc1ccc(NC(=O)C2=Cc3ccccc3OC2)cc1,"inconclusive: 23.1 µM [cytotoxic, single point]"
10,CCN(CC)C(=O)c1cccc(-c2csc(C(NC(C)=O)c3cccc(OC)c3)n2)c1 (configuration not stated),"inconclusive: 20.6 µM [cytotoxic, partial curve, poor fit]"
